Test results from patent publication US12433950 (dated 2025).

Assay: general procedure: solution-phase peptide synthesis; BroP; diethyl cyanophosphonate; PyBrop
Conditions: for conjugation yield: conjugation step

## (4R)-4-(2-((1R,3R)-1-acetoxy-3-((2S,3S)—N,3-dimethyl-2-((R)-1-methylpiperidine-2-carboxamido)pentanamido)-4-methylpentyl)thiazole-4-carboxamido)-5-(3-(3-(2-(2-azidoethoxy)ethoxy)propanamido)-4-hydroxyphenyl)-2-methylpentanoic acid
  conjugation yield: 82% yield

## (4R)-4-(2-((6S,9R,11R)-6-((S)-sec-butyl)-9-isopropyl-2,3,3,8-tetramethyl-4,7,13-trioxo-12-oxa-2,5,8-triazatetradecan-11-yl)thiazole-4-carboxamido)-5-(4-hydroxy-3-(3-(2-(2-propiolamidoethoxy)ethoxy)propanamido)phenyl)-2-methylpentanoic acid
Coupling step
  step yield: 24%

## (2S)-2-((2R,3R)-3-((2S)-1-((11S,14S,17S)-1-azido-17-((R)-sec-butyl)-11,14-diisopropyl-18-methoxy-10,16-dimethyl-9,12,15-trioxo-3,6-dioxa-10,13,16-triazaicosan-20-oyl)pyrrolidin-2-yl)-3-methoxy-2-methylpropanamido)-3-phenylpropanoic acid
  conjugation yield: 82% yield

## (S)-2-((2R,3R)-3-((S)-1-((3R,4S,5S)-4-((S)—N,3-dimethyl-2-((S)-3-methyl-2-(methylamino)butanamido)butanamido)-3-methoxy-5-methylheptanoyl)-pyrrolidin-2-yl)-3-methoxy-2-methylpropanamido)-3-phenylpropanoic acid
Late stage modification step, run 1
  step yield: ˜100% yield
Late stage modification step, run 2
  step yield: 90% yield

## (S)-2-((2R,3R)-3-((S)-1-((8S,11S,14S,17S,20S,21R)-20-((S)-sec-butyl)-14,17-diisopropyl-21-methoxy-8,11,13,19-tetramethyl-3,6,9,12,15,18-hexaoxo-5-propiolamido-4,7,10,13,16,19-hexaazatricos-1-yn-23-oyl)pyrrolidin-2-yl)-3-methoxy-2-methylpropanamido)-3-phenylpropanoic acid
  conjugation yield: 78% yield

## (4R)-4-(2-((4R,6R,9S,12S,15S,18S)-9-((S)-sec-butyl)-6,12-diisopropyl-7,13,15,18-tetramethyl-2,8,11,14,17,20,23-heptaoxo-21-propiolamido-3-oxa-7,10,13,16,19,22-hexaazapentacos-24-yn-4-yl)thiazole-4-carboxamido)-2-methyl-5-phenylpentanoic acid
  conjugation yield: 85% yield

## (S)-methyl 2-((2R,3R)-3-((S)-1-((3R,4S,5S)-4-((S)-2-((S)-2-((S)-2-amino-N-methylpropanamido)-3-methylbutanamido)-N,3-dimethylbutanamido)-3-methoxy-5-methylheptanoyl)pyrrolidin-2-yl)-3-methoxy-2-methylpropanamido)-3-phenylpropanoate
Late stage modification step
  step yield: 96% yield

## (4R)-4-(2-((3S,6S,9R,11R)-6-((S)-sec-butyl)-3,9-diisopropyl-8-methyl-4,7,13-trioxo-12-oxa-2,5,8-triazatetradecan-11-yl)thiazole-4-carboxamido)-2-methyl-5-phenylpentanoic acid hydrochloride salt
Late stage modification step, hydrochloride salt
  step yield: 103% yield

## (S)-methyl 2-((2R,3R)-3-((S)-1-((6S,9S,12S,13R)-12-((S)-sec-butyl)-6,9-diisopropyl-13-methoxy-2,2,5,11-tetramethyl-4,7,10-trioxo-3-oxa-5,8,11-triazapentadecan-15-oyl)pyrrolidin-2-yl)-3-methoxy-2-methylpropanamido)-3-phenylpropanoate
Coupling step
  step yield: 39% yield
